Experimental data as given in PMC7090148 (2020).
Positions count from the first letter of the chain named. These are yes or no findings as the source states them, for the method shown. Binding seen in cells or lysates may run through a third protein. Some entries that bind do so weakly or less than the wild type. Sequences can lack the tags named with a protein.

Legend:
Mouse OFD1 S75F (mouse) = molecular target: T1, Mouse OFD1 S75F (mouse) (UniProt Q80Z25); test: co-IP; OFD1 mutants co-expressed with TRAPPC8 or TRAPPC12; IP efficiency as ratio of immunoprecipitated TRAPPC8/OFD1 or TRAPPC12/OFD1; cell line and IP antibody not stated for this panel
T1 sequence: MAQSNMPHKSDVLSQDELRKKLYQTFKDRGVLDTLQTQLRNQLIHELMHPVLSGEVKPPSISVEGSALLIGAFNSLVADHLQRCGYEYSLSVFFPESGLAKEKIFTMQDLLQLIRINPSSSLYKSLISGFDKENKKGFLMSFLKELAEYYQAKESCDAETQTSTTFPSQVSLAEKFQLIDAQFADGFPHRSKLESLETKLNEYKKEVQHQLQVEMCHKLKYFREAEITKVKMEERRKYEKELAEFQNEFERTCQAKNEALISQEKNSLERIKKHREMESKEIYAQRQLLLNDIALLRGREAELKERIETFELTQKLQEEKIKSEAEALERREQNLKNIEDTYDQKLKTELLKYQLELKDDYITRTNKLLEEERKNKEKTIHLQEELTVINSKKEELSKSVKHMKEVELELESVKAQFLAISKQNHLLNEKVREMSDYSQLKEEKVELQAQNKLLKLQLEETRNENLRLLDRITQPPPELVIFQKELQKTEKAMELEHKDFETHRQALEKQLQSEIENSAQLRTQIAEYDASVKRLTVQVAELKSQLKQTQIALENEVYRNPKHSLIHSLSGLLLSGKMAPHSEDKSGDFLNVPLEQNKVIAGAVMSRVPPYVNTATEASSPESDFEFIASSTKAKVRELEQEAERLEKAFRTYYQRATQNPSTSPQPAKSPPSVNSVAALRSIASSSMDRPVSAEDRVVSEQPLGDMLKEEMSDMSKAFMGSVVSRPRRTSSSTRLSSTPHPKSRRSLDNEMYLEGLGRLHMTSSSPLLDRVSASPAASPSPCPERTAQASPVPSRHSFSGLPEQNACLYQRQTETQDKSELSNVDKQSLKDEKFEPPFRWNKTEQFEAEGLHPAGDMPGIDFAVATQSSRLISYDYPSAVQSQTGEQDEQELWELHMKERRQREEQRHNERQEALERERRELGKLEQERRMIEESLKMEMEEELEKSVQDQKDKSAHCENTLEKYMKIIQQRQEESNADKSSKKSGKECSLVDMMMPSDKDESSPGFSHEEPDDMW

[1] = molecular target: T2, Mouse OFD1, wild type (mouse) (UniProt Q80Z25); test: as above
T2 sequence: T1 sequence with F73S

B1: NTAP-tagged TRAPPC12 (protein, UniProt Q8K2L8 1-797)
chain: METAKDGEQSPSEASPSAQAGPENIPEPMSREEESQPLYHEETIDLGGDEFASEENEPTSEGSHNFGDKLNEHMMESVLISDSPNNSEGDVGDLGCLQDVGEPPRGATDHRLPSSTDKEVVDTLSNGSETDGDDTPRDISDMTPDSRASLKEDSTQEDVTSMPALENAATEEVGPKDSLAPREEQTSEVSSNQSSSKDEPLPVCTIFSQATATPSQPHLFLQDGFESQMVKSPSFSSTSETSAKTPPPMVQPSPSLSTFFGDTMSSNSLASDFFDSFTTSTFISVSNPNAGSPVPEKLSSLTAPVGEKSPDSTSPSYSTRMDRSESGVSRAPLDVPESPKPFSQIQAVFAGSDDPFATALSMSEMDRRNDAWLPSQATREVLMSVATQQYGTVFIDKENLTMPGLKFDNIQGDAVKDLMLRFLGEKAAAKRQVLNASSVEQSFVGLKQLISCRNWRAAVDLCGRLLTAHGQGYGKNGLPTSHTTDSLQLWFVRLALLVKLGLFQNAEMEFEPFGNLDQPDLYYEYYPHVYPGRRGSMVPFSMRILHAELQQYLGNPQESLDRLHRVKTVCSKILANLEQGLAEDGGLSSVTQESRQASVQLWRSRLGRVLYSMANCLLLMKDYVLAVDAYLTVIKYYPEQEPQLLSGIGRILLQIGDIKTAEKYFQDVEKVTQKLDGLQGKIMVLMNRAFLYLGQNNFAEAHKFFTEILRMDPTNAVANNNAAVCLLYLGKLKDSLRQLEAMVQQDPRHYLHESVLFNLTTMYELESSRSMQKKQSLLEAVASKEGDSFNTQCLKLA
In the case of B1, the binding (Mouse OFD1 S75F (mouse)) is reported as “binds” and the binding [1] is reported as “binds”.
